In PubChem BioAssay AID1508600 (Functional Genomics Laboratory (NCATS/FGL), 2020) one finds z-score data, which are given here for 29 sequences.

The campaign covered roughly 53,000 sequences. About 3,700 (7%) were called active.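 How the source made its calls: active means gene knockdowns whose robust z-score for IL-1 alpha signal is at least 2 or at most -2, so actives lie on both sides; inactive means the rest.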 This is one part of the list.

The experiment in a line: Components of the Cytosolic LPS Sensing Pathway: Gene Identification via Genome-wide siRNA Screen.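 Further: robust z of the log signal after scaling to non-targeting control siRNA wells of the plate.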 The note with it: RAW264.7 macrophages, IL-1a HTRF, actives lie on both sides, screened at 100 nM (by protocol), cells primed 5 h with Pam3CSK4 first. The method in brief:
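Using IL-1a HTRF as read-out, the screen measured release from RAW264.7 cells after 48h siRNA knockdown (100 nM), 5 h Pam3CSK4 priming and 24 h cytosolic LipidA. Values were expressed relative to negative-control wells as robust z-scores.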
A general note: Time-resolved FRET reads energy transfer from a long-lived donor to a nearby acceptor.
Take GCUUAGAUAUUUCUUAUGCTT against Cenpl: the z-score was inactive: 0.472.
For GCUACUUUUUAGUGGUUGUTT against Olfr1298, the z-score was inactive: -0.781.
Consider GAAAAAUGUGCAAGAGACUTT against Olfr1218, for which the z-score is inactive: -1.29.
In the case of GGCCUUGAAGGAGUAUGAGTT against Atp2a3 it was active: -2.62; in that of CGGAUUGGCCAACAACGCATT against Slc24a3, inactive: -0.42; in that of GGAAGAUGAUGAGAUAAACTT against Herpud1, inactive: -1.31.
Regarding GGGCGAGAUUACCAUCUUGTT against Relt, the z-score is inactive: -0.471.
As to GAGCCAGAAGAUAACCAAGTT against Dpm2, the z-score is inactive: -1.61.
The figure for GACUCUCCUGCUUUUACCUTT against Nat8f4 is inactive: -1.13.
Take GGUGAUGGAAUACCAAAGGTT against Dnajc28: the z-score is inactive: -0.736.
CCCAACUCGGUUUUUUUCUTT against Olfr1037: the z-score is inactive: 0.827.
Turning to GCUACGGAUGCUUUUCAAATT against Ube2i, the z-score is inactive: -0.351.
Turning to GGACACCUGAUUUUCUUCUTT against Slc41a3, the z-score is inactive: -0.364.
In the case of GGAAAAUACAGCUUUGUAATT against Esyt2 it was inactive: -0.0753.
As for GGGAUUAUAGGGCGCAUUGTT against Olfr685, the z-score is inactive: -1.01.
The figure for GGCGGUCUUUAUUUAGACATT against Dusp12 is inactive: 1.32.
For the sequence GGAAAUGGGAAGUUUAAUCTT against Cdo1, the z-score is inactive: 1.62.
Turning to GGUGUACAGUCUGUUCCGATT against Ltbp2, the z-score was inactive: 1.41.
As to GCUUUUGAUAUUCCACGUUTT against Pole2, the z-score was inactive: 0.273.
As to CCGAAUGUUCCAUGUUUGUTT against Lrrc8d, the z-score was inactive: 1.86.
GGCAGAGAAGGAGGCUAAGTT against Tcf7: the z-score is inactive: -0.197.
The figure for GGAGAAGACUAUAAGCUUATT against Rxylt1 is inactive: 1.21.
Take CCGAUUAGAAAAGACCAAATT against Ccdc25: the z-score is inactive: 0.727.
Take GCUUUGAGACUAGAUGUGGTT against Kirrel3os: the z-score was inactive: -0.745.
With CGAUUACACUAGCAAGAAATT against Bche, the z-score was inactive: -0.0718.
Take GCUGGACCACUGCAAUAUUTT against Gsk3a: the z-score was inactive: -1.08.
The figure for GGCAGCUUCAGGAACCAAUTT against Krt5 is active: -2; for GGGACAUUUCAGAUUGUAUTT against Thumpd1 it is inactive: -1.31.
As for GCAAAACAUGAGCUUAAACTT against Spcs1, the z-score was inactive: -0.241.
